This continues a long series; more values of the same kind are listed elsewhere.
Test system: peripheral blood mononuclear cells (PBMC)
Assay: Microarray analysis (3), dose-dependent intron expression in PBMC at 3, 10, 30 nM, Table 5
Format: cell-based, human
Experimental: PBMC was suspended in RPMI1640 medium (containing 10% FBS, penicillin, and streptomycin) to 5×10^6 cells/ml and 1 ml of the suspension was plated per well of a 24-well plate. Immediately, 111 μl of 10 times-concentrated (8E,12E,14E)-7-((4-cycloheptylpiperazin-1-yl)carbonyl)oxy-3,6,16,21-tetrahydroxy-6,10,12,16,20-pentamethyl-18,19-epoxytricosa-8,12,14-trien-11-olide was added to the well (six wells per each concentration tested). The cells were then cultured in an incubator with 5% carbon dioxide gas at 37° C. Three hours later, the supernatant was collected and centrifuged at 1500 rpm for five minutes. TRI reagent (SIGMA) (1 ml) was added to each well of the plate from which the supernatant was removed to harvest the cells, which was added to the centrifuged pellet to dissolve. RNA was purified in accordance with the protocol of TRI reagent. RNA was further purified using RNeasy (QIAGEN) and, in accordance with the protocol, DNaseI was added to the samples during the procedure. Absorbance at 260 nm was measured to quantify an amount of RNA.
Ribosomal RNA was removed from 1 μg of each total RNA of control cells (n=3) and cells with the treatment (n=3) using RiboMinus Human/Mouse Transcriptome Isolation Kit (Invitrogen). Single stranded cDNA synthesis, double stranded cDNA synthesis, cRNA synthesis, second single stranded cDNA synthesis, cDNA fragmentation, and cDNA labeling in order were carried out for total RNA from which ribosomal RNA was removed, using GeneChip Whole Transcript Sense Target Labeling and Control Reagents (Affymetrix) to make a cDNA probe. Subsequently, the cDNA probe was used for hybridization with Human Exon 1.0 ST Array (Affymetrix). The array was washed and stained, and luminescence intensity was measured by a scanner.
The expression level of the probe set and the gene was quantified by using Expression Console Ver. 1.0 (Affymetrix) with Summarization Method and Normalization Method being set to “Median polish as used in RMA” and “None”, respectively. The expression level of the probe was normalized with that of the gene.
Probe sets showing that the normalized change in the level expression of the probe set in the group with the treatment at 30 nM was more than 5 times; the expression level of the probe set and the gene in the group with the treatment at 30 nM was more than 100; and probe set annotation was “extended, full, free”, were picked out. Regression analysis was performed with the probe sets extracted for the control group, the group with the treatment at 3 nM, the group with the treatment at 10 nM, and the group with the treatment at 30 nM to determine a p and q value for the slope of regression formula. A gene containing the probe sets with the q value of less than 5% was determined as a candidate gene with increased expression level of the intron regions (Table 5).
In Table 5, for the gene evaluated, gene name (Gene Name), abbreviated name (Gene Symbol), accession number (Accession), alias name (Synonym), transcription cluster number in Human Exon 1.0 ST Array (Human Exon 1.0 ST Array Transcription Cluster ID), chromosome number (Chromosome), type of strand (Strand), start region (Start), stop region (Stop), and change in expression level per 1 nM (Fold Change/nM) were respectively shown.

Measured: Fold Change/nM

CCC(O)C(C)C1OC1CC(C)(O)/C=C/C=C(\C)C1OC(=O)CC(O)CCC(C)(O)C(OC(=O)N2CCN(C3CCCCCC3)CC2)/C=C/C1C (centres unmarked) [E7107, (8E,12E,14E)-7-((4-cycloheptylpiperazin-1-yl)carbonyl)oxy-3,6,16,21-tetrahydroxy-6,10,12,16,20-pentamethyl-18,19-epoxytricosa-8,12,14-trien-11-olide]
1.08 nM⁻¹: introns of gene ABCA1, regression over control, 3, 10, 30 nM | introns of gene B4GALT5, regression over control, 3, 10, 30 nM
1.05 nM⁻¹: introns of gene ADAM19, regression over control, 3, 10, 30 nM | introns of gene AHSA1, regression over control, 3, 10, 30 nM | introns of gene ATG9A // ABCB6, regression over control, 3, 10, 30 nM | introns of gene BCL11B, regression over control, 3, 10, 30 nM | introns of gene BCLAF1, regression over control, 3, 10, 30 nM
1.07 nM⁻¹: introns of gene AP3B1, regression over control, 3, 10, 30 nM | introns of gene ATP13A3, regression over control, 3, 10, 30 nM
1.04 nM⁻¹: intron expression of gene GPR132 (cluster 3581404), slope over control, 3, 10, 30 nM | intron expression of gene HCK (cluster 3881651), slope over control, 3, 10, 30 nM | intron expression of gene ICAM1 (cluster 3820443), slope over control, 3, 10, 30 nM | intron expression of gene IQGAP1 (cluster 3608113), slope over control, 3, 10, 30 nM | intron expression of gene KIAA0368 (cluster 3220513), slope over control, 3, 10, 30 nM | intron expression of gene KIAA1468 (cluster 3791168), slope over control, 3, 10, 30 nM | intron expression of gene KIAA1967 (cluster 3089597), slope over control, 3, 10, 30 nM | intron expression of gene KLHL18 (cluster 2621275), slope over control, 3, 10, 30 nM | intron expression of gene MTF2 (cluster 2346934), slope over control, 3, 10, 30 nM | intron expression of gene NKTR (cluster 2619344), slope over control, 3, 10, 30 nM | intron expression of gene NOL9 (cluster 2394784), slope over control, 3, 10, 30 nM | intron expression of gene NOP5/NOP58 (cluster 2523144), slope over control, 3, 10, 30 nM | intron expression of gene NUBP1 (cluster 3647956), slope over control, 3, 10, 30 nM | intron expression of gene OGDH (cluster 2999948), slope over control, 3, 10, 30 nM | intron expression of gene PAPOLA (cluster 3550392), slope over control, 3, 10, 30 nM | intron expression of gene PITPNB (cluster 3956290), slope over control, 3, 10, 30 nM | intron expression of gene PSMC4 (cluster 3833291), slope over control, 3, 10, 30 nM | intron expression of gene RBM6 (cluster 2622359), slope over control, 3, 10, 30 nM | intron expression of gene SFRS10 (cluster 2709062), slope over control, 3, 10, 30 nM | intron expression of gene SIN3A (cluster 3633403), slope over control, 3, 10, 30 nM | intron expression of gene SRCAP (cluster 3656418), slope over control, 3, 10, 30 nM | intron expression of gene TM9SF3 (cluster 3301857), slope over control, 3, 10, 30 nM | intron expression of gene TOMM70A (cluster 2686371), slope over control, 3, 10, 30 nM | intron expression of gene UBE2B (cluster 2829275), slope over control, 3, 10, 30 nM | intron expression of gene XPO4 (cluster 3504434), slope over control, 3, 10, 30 nM | intron expression of gene XRN2 (cluster 3879467), slope over control, 3, 10, 30 nM | intron expression of gene YIPF3 // C6orf154 (cluster 2954646), slope over control, 3, 10, 30 nM | intron expression of gene ZNF410 (cluster 3543884), slope over control, 3, 10, 30 nM | introns of gene ACTB, regression over control, 3, 10, 30 nM | introns of gene AGPAT3, regression over control, 3, 10, 30 nM | introns of gene ALDOA, regression over control, 3, 10, 30 nM | introns of gene ARF4, regression over control, 3, 10, 30 nM | introns of gene BLR1, regression over control, 3, 10, 30 nM | introns of gene BOLA1, regression over control, 3, 10, 30 nM | introns of gene BXDC2, regression over control, 3, 10, 30 nM
1.06 nM⁻¹: introns of gene AAK1, regression over control, 3, 10, 30 nM | introns of gene ABL2, regression over control, 3, 10, 30 nM | introns of gene AFF4, regression over control, 3, 10, 30 nM | introns of gene AHR, regression over control, 3, 10, 30 nM | introns of gene AKNA, regression over control, 3, 10, 30 nM | introns of gene ANKRD17, regression over control, 3, 10, 30 nM | introns of gene ARFGEF1, regression over control, 3, 10, 30 nM | introns of gene ARID4B // RBM34, regression over control, 3, 10, 30 nM | introns of gene ATP2B1, regression over control, 3, 10, 30 nM | introns of gene ATP6V1B2, regression over control, 3, 10, 30 nM | introns of gene BACH2, regression over control, 3, 10, 30 nM | introns of gene BNIP2, regression over control, 3, 10, 30 nM

Source: US20100021918A1, “METHOD FOR ASSAYING ACTION OF ANTITUMOR AGENT USING SPLICING DEFECTS AS INDEX” (Eisai R&D Management Co., Ltd., priority 2007, published 2010)
